Sequences of proteins named here, by UniProt entry; tags and fusion partners are left off. A change or cut given only in a name is not applied to a line headed by its entry. A line that says so, or that is headed by a name, gives the form on record, which may keep a tag or linker.
SET (endogenous, K562 cells) (human (endogenous in K562)) (Q01105, form named): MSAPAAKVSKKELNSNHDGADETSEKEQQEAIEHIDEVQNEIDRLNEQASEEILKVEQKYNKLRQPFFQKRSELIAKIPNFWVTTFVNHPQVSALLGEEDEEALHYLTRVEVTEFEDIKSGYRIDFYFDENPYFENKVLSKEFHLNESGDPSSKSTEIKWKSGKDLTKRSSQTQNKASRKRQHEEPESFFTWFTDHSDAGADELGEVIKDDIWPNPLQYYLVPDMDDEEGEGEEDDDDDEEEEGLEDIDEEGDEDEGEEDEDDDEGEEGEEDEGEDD
UniProt Q9EQU5: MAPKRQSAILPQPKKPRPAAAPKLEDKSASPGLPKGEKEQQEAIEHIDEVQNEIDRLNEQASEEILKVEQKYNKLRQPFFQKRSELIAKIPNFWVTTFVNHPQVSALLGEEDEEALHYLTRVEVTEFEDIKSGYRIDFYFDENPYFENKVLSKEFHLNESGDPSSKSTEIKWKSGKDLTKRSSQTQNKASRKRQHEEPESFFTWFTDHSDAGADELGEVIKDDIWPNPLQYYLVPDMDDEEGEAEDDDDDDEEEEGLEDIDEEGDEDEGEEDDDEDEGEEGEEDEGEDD
UniProt P67775: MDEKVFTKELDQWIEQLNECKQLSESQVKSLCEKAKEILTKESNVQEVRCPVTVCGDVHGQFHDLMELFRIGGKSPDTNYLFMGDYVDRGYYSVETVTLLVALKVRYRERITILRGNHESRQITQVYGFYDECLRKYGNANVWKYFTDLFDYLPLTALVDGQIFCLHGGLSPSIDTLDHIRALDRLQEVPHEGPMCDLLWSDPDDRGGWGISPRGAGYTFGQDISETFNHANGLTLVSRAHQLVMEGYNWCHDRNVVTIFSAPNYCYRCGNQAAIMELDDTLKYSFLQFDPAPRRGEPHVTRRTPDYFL
UniProt P63330: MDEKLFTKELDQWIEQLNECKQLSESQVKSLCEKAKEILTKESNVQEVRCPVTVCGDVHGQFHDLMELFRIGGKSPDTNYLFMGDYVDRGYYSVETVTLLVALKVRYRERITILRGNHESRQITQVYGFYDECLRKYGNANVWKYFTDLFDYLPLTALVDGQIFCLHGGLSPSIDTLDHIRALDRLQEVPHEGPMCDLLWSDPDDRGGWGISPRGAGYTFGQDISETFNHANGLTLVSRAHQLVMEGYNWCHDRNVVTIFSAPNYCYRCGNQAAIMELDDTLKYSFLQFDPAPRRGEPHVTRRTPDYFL

In article PMC4494927, “Discovery of a small molecule targeting SET-PP2A interaction to overcome BCR-ABLT315I mutation of chronic myeloid leukemia” (Oncotarget, 2015):

Experiments:
[1] = molecular target: SET (endogenous, K562 cells) (human (endogenous in K562)) (UniProt Q01105); assay: co-IP; endogenous proteins; lysates (200 μg) of cells incubated with or without TGI1002 for 24 h; antibodies against SET or PP2Ac, protein A/G plus agarose, 4 °C; 20 mM Tris-HCl pH 7.0, 150 mM NaCl, 1 mM EDTA, 1 mM MgCl, 0.5% NP-40; Western blot
[2] = molecular target: SET (endogenous, murine BaF3-p210^T315I cells) (mouse (endogenous in BaF3-p210^T315I)) (UniProt Q9EQU5); assay: as above
[3] = molecular target: SET (endogenous, murine BaF3-p210^T315I cells) (mouse (endogenous in BaF3-p210^T315I)) (UniProt Q9EQU5); assay: co-IP; endogenous proteins; homogenized tissues of BaF3-p210^T315I xenografted tumors from mice treated with saline (vehicle) or TGI1002 (30, 45 and 60 mg/kg); PP2Ac and SET immunoprecipitated; Western blot

| binding [1] | binding [2] | binding [3] | Substance |
| --- | --- | --- | --- |
| binds | – | – | catalytic subunit of PP2A (PP2Ac) (endogenous, K562 cells) (from UniProt P67775) (enzyme) |
| – | binds | binds | catalytic subunit of PP2A (PP2Ac) (endogenous, murine BaF3-p210^T315I cells) (from UniProt P63330) (enzyme) |

Results are given in words; binding and its absence hold for the method and conditions named. Binding seen in cells or lysates may run through a third protein. Binding calls can cover weak binding; strength is not graded here.
